Patent US12655436B2, “Import of unnatural or modified nucleoside triphosphates into cells via nucleic acid triphosphate transporters” (The Scripps Research Institute, priority 2014, dated 2026)

Assay: Nucleotide extraction from cells for HPLC analysis: recovery and triphosphate decomposition
Set-up: species or system E. coli
Conditions: cytoplasmic fraction extraction for HPLC quantification
Method: To minimize the effect of the lysis and triphosphate extraction protocols on the decomposition of nucleoside triphosphate within the cell, the following extraction procedure was discovered that led to an unexpectedly highest recovery with and low extent of decomposition (Table 9). Cells were grown, washed, and then 5 nmol of either dNaMTP or d5SICSTP was added to the pellets, which were then subjected to various types of extractions including boiling water, hot ethanol, cold methanol, freeze and thaw, lysozyme, glass beads, NaOH, trichloroacetic acid (TCA) with Freon, and perchloric acid (PCA) with KOH. The recovery and composition of the control was quantified by HPLC. […] Pellets were resuspended in ice cold KPi (50 mM, 250 μl) before addition of NaOH to decrease dephosphorylation after cell lysis (Method 4).

SMILES | loss from the extraction step [%]
Cc1ccc2c(=S)n([C@H]3C[C@H](O)[C@@H](CO)O3)ccc2c1 [d5SICS] | 70
COc1cc2ccccc2cc1[C@H]1C[C@H](O)[C@@H](CO)O1 [dNaM] | 62
